Literature values as cited in patent US20100068260A1, “Methods, Compositions and Device for Directed and Controlled Heating and Release of Agents” (priority 2007, published 2010).
At least one structure is not confirmed: it was looked up by name or label, or the drawing left a doubt.

Details: cited from earlier work

SMILES | phase transition temperature [°C]
CCCCCCCCCCCCCCCC(=O)OC[C@H](COP(=O)([O-])OCC[N+](C)(C)C)OC(=O)CCCCCCCCCCCCC [palmitoylmyristoylphosphatidyl choline] | 27.2
CCCCCCCCCCCCCCCCCC(=O)OC[C@H](COP(=O)([O-])OCC[N+](C)(C)C)OC(=O)CCCCCCCCCCCCCCC [stearoylpalmitoylphosphatidyl choline] | 44.0
CCCCCCCCCCCCCCCCCC(=O)OC[C@H](COP(=O)([O-])OCC[N+](C)(C)C)OC(=O)CCCCCCCCCCCCCCCCC [distearolyphosphatidyl choline] | 54.9
